Source: article PMC6102298
No constants are given. Whether binding was seen depends on the method and setting. Binding seen in cells or lysates may run through a third protein. Tags and fused reporters may be left off the sequences shown.

Target: mCherry-Mcl-1ΔTM (human)
Test: FRET or BRET; FRET/FLIM in fixed MCF7 cells co-transfected with EGFP (donor) and mCherry (acceptor) fusions, medium with 10 µM Q-VD-OPh; EGFP fluorescence lifetime, 470 nm pulsed laser

B1: EGFP-Bok (protein, UniProt Q9UMX3 1-212)
chain: MEVLRRSSVFAAEIMDAFDRSPTDKELVAQAKALGREYVHARLLRAGLSWSAPERAAPVPGRLAEVCAVLLRLGDELEMIRPSVYRNVARQLHISLQSEPVVTDAFLAVAGHIFSAGITWGKVVSLYAVAAGLAVDCVRQAQPAMVHALVDCLGEFVRKTLATWLRRRGGWTDVLKCVVSTDPGLRSHWLVAALCSFGRFLKAAFFVLLPER
binding: no binding
